Assay results published in patent publication US7927618B2, “Implants, particles” (Laboratorios Farmacéuticos Rovi S.A., priority 2000, dated 2011).
Some entries share one result that the patent states for a list of compounds. For at least one compound, name, drawing or mass did not settle the structure.

assay: Drug release from the in-situ forming formulations; type: physicochemical; conditions: formulations listed in Examples 1 and 2; several weeks up to 3 months

Row | SMILES | period over which the drug was released
1 | C[C@H]1c2cccc(O)c2C(=O)C2=C(O)[C@]3(O)C(=O)C(C(N)=O)=C(O)[C@@H](N(C)C)[C@@H]3[C@@H](O)[C@@H]21 [doxycycline] | up to 3 months
2 | CCNC(=O)[C@@H]1CCCN1C(=O)[C@H](CCCNC(=N)N)NC(=O)[C@H](CC(C)C)NC(=O)[C@@H](CC(C)C)NC(=O)[C@H](Cc1ccc(O)cc1)NC(=O)[C@H](CO)NC(=O)[C@H](Cc1c[nH]c2ccccc12)NC(=O)[C@H](Cc1c[nH]cn1)NC(=O)[C@@H]1CCC(=O)N1 [leuprolide acetate] | up to 3 months
3 | CCN(CC)CC(=O)Nc1c(C)cccc1C [lidocaine] | up to 3 months
